We go through four substances from publication PMC9834662.

By UniProt entry, the sequences of proteins in these tests, tags left out.
UniProt P97801: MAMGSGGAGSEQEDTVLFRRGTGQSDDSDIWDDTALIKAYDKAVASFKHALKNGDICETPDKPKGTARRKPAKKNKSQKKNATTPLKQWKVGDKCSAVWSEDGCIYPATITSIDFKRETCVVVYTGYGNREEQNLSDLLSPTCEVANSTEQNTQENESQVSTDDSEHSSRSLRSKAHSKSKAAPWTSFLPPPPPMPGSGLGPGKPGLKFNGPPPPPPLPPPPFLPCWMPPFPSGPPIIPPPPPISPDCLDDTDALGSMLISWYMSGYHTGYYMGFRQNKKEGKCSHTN
UniProt P15172: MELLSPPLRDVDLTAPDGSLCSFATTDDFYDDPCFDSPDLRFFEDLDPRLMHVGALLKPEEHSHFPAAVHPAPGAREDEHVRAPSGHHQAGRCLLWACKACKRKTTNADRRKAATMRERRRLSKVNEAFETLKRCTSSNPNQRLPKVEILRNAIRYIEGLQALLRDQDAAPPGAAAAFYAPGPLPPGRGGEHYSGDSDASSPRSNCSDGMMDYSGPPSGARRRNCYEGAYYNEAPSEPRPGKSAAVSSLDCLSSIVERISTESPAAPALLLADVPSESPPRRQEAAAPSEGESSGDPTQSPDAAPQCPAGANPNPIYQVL
UniProt P10085: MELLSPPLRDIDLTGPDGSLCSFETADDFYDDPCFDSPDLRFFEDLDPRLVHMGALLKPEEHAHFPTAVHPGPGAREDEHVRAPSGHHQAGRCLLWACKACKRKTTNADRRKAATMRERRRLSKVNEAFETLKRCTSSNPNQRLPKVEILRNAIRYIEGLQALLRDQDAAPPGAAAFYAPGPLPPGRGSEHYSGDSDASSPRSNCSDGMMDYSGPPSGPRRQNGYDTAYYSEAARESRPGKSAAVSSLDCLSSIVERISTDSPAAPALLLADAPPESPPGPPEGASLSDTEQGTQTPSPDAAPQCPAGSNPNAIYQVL
UniProt Q16637: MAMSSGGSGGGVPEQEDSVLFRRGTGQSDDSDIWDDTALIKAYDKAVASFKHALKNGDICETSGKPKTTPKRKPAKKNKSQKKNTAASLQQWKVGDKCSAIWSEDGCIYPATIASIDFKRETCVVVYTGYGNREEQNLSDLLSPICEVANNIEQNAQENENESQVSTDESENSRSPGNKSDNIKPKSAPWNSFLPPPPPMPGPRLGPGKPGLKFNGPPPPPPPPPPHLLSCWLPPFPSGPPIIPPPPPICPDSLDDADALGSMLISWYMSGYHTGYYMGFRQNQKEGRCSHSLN

Results are given in words; binding and its absence hold for the method and conditions named. Binding seen in cells or lysates may run through a third protein. Some results given as binding are weak or reduced against the parent protein; the word gives no strength.

Assay [1] addresses survival motor neuron protein (SMN), mouse, endogenous in C2C12 cells (mouse (endogenous in C2C12)) (UniProt P97801). Description: co-IP; C2C12 cells, day 3 of differentiation; sonicated lysate in IP buffer (10 mM Tris-HCl pH 7.8, 1.0% NP-40, 15 mM NaCl); primary antibody on Dynabeads, 4°C overnight; immunoblot.
Assay [2] deals with Flag-tagged MYOD1 (human) (UniProt P15172). Description: co-IP; Flag-MYOD1 and His-SMN transiently expressed in HEK293 cells; IP with Dynabeads, immunoblot.
Assay [3] deals with myoblast determination protein 1 (MYOD1) in B7-M iPSC-derived myogenic cells (human (human iPSC-derived cells; species of the transgene not stated)) (UniProt P15172). Description: co-IP; B7-M iPSC-derived myogenic cells, day 3; sonicated lysate in IP buffer (10 mM Tris-HCl pH 7.8, 1.0% NP-40, 15 mM NaCl); primary antibody on Dynabeads, 4°C overnight; immunoblot.
Assay [4] addresses myoblast determination protein 1 (MyoD1), mouse, endogenous in C2C12 cells (mouse (endogenous in C2C12)) (UniProt P10085). Description: co-IP; C2C12 cells, day 3 of differentiation; sonicated lysate in IP buffer (10 mM Tris-HCl pH 7.8, 1.0% NP-40, 15 mM NaCl); primary antibody on Dynabeads, 4°C overnight; immunoblot.

Consider “myoblast determination protein 1 (MyoD1), mouse, endogenous in C2C12 cells (from UniProt P10085 1-318)”, for which, in assay [1], the binding entry is given as “binds”.
With “His-tagged SMN (from UniProt Q16637 1-294)”, in assay [2], the binding entry was “binds”.
With “survival motor neuron protein (SMN), human, endogenous in B7-M iPSC-derived myogenic cells (from UniProt Q16637 1-294)”, in assay [3], the binding entry is “binds”.
With “survival motor neuron protein (SMN), mouse, endogenous in C2C12 cells (from UniProt P97801 1-288)”, the binding entry in assay [4] is “binds”.
